In PubChem BioAssay AID1794844 (National Center for Advancing Translational Sciences (NCATS), 2023):
In all, about 2,800 compounds went through this assay and fewer than 10 were called active. Roughly 7% stayed inconclusive and do not appear here. Calls come from the whole dose curve; as a rule, active = well fitted inhibition curve with a large enough effect; inconclusive = small, poorly fitted or top-dose-only effect; inactive = no such curve, though single readings can be large or run the other way. The list shows a part of the results.

Amino acid sequences for entries named in this document (tags omitted). A change or cut given only in a name is not applied to a line headed by its entry.
UniProt C7C422: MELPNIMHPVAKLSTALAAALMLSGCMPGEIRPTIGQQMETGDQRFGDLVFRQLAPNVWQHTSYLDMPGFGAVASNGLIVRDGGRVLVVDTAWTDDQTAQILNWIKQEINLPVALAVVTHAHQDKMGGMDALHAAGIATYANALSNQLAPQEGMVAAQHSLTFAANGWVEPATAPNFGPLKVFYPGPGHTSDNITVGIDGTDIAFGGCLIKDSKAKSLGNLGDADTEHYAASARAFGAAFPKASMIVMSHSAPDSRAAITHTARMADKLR

target: Metallo-beta-lactamase type 2 (Klebsiella pneumoniae) (UniProt C7C422); assay: qHTS to identify inhibitors of the New Delhi Metallo-beta-lactamase (NDM): Nitrocefin screen against the machine-based learning selections.; note: % of control where 0% means no effect; conditions: NDM-1 enzyme, nitrocefin hydrolysis, absorbance 485 nm; activity, negative = inhibition: at the top concentration
Method in brief: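 Hydrolysis by 2 nM NDM-1 was followed by absorbance after >30 min compound preincubation in HEPES pH 7.0 buffer with 1 uM Zn2SO4. For nitrocefin (16.7 uM, 15 min, 485 nm) and meropenem (50 uM, 30 min, 300 nm), each substrate ran on separate plates.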

activity, negative = inhibition, inactive:
NC(=O)c1csc(S(=O)(=O)N2CCC(CO)(CN3CCCC3)CC2)c1 -2.83%, CCN1CCCC2(CCN(C(=O)NCCc3ccccc3F)C2)C1=O (stereo not given) -2.96%, COc1ccc2c(c1)CN(C(=O)c1cccc(C#N)c1)CC[C@H]1COC(=O)N21 -1.91% [at 57.5 µM], CC(C)C[C@@H](NC(=O)C1=C[C@@H](NC(=O)Cc2cccs2)[C@@H](O)[C@H](O)C1)C(N)=O -13.3% [at 57.5 µM], COc1ccc(CN[C@H]2C[C@H]3C(=O)NC[C@@H](CCC(=O)NCc4ccc(F)cc4)N3C2)cc1 3.62%, CNc1cc(C)nc(N2C[C@H]3CN(C(=O)N(C)C)C[C@@]3(C(=O)O)C2)n1 -14.6%, COCc1noc([C@@H]2CC(F)(F)CN2C(=O)c2occc2C)n1 -2.73%, COc1cccc(NC(=O)COc2cccc(-c3nnc4n3CCCC4)c2)c1 -5.08%, O=C(Cc1ccccc1)Nc1ccc([C@@H](O)[C@H]2COCC(=O)N2CC2CC2)cc1 -3.52% [at 57.5 µM], Cn1ccc2c(C(=O)NCc3cccnc3)nc(Nc3ccccc3)cc21 -14.7% [at 57.5 µM], O=C(NC[C@H]1OC[C@@H](NCc2cnc[nH]2)[C@@H]1O)C1CCCC1 11.5% [at 57.5 µM], COC[C@@H]1CN(C(=O)c2cncc(C)c2)C[C@H]1C(N)=O 1.39%, CCc1cc(C(=O)N[C@H](c2ccc(OC)nc2)C2CC(O)C2)ccn1 (stereo not given in full) -0.196%, O=C(CCCc1ccccc1)NCC(=O)N1CCCCCCNC(=O)CC1c1ccccc1 (stereo not given) -0.154%, O[C@@H]1C[C@@H](c2nc(-c3ccc4c(c3)OCO4)no2)N(Cc2cc3ccccc3o2)C1 2.13% [at 57.5 µM], CN1C(=O)COC[C@@H]1[C@H](O)c1ccc(NC(=O)c2ccc(F)cc2)cc1 8.82% [at 57.5 µM], COc1ccc2[nH]c(C(=O)N[C@H]3COC[C@H]3Cc3cc(C)no3)c(C)c2c1 3.51%, Cc1nc(NCCc2ccn[nH]2)cc(C2CC(O)C2)n1 (stereo not given) 0.241%, CCOc1cc(=O)n2c(c1C(=O)Nc1ccc(C)cc1)CCCC2 0.632%, Cc1ccc(CN2CCC[C@H]2c2nc(-c3ccc(OC4CCCCC4)nc3)no2)cc1 -7.57% [at 57.5 µM], Cn1cnc2cc(-c3ccc(CO)cc3)cc(C(=O)NCc3cccnc3)c21 -1.39% [at 57.5 µM], CC(C)C[C@@H]1N[C@H](C(=O)NC2CC2)Cc2cn(Cc3nccn3C)c3cccc1c23 -3.02% [at 57.5 µM], O=C(c1ccsc1)N1CCCn2cc(-c3ccccc3F)nc21 4.12%, Cc1cc(=O)[nH]c(NCCNC(=O)c2cccc(CCC(C)(C)O)c2)n1 -3.4%, COc1ccc(NC(=O)c2ccc3c(c2)N(C)C2CCCCN2C3=O)cc1Cl (stereo not given) 1.22%, CC(C)CN(Cc1cccnc1)C1CN(S(=O)(=O)Cc2ccccc2F)C1 -1.28%, COc1ccc2nc(C[C@@H]3C[C@@H](C(C)C)[C@H](CNC(=O)Nc4ccc(F)cc4)C=C3C)[nH]c2c1 -10.1%, O=C(NCCc1ccccc1)c1cnc2n[nH]c(-c3ccccc3)c2n1 -10.9% [at 57.5 µM], Cc1ccc(NC(=O)N2CCCC(c3nnc(CN(C)C)n3C)C2)cc1C (stereo not given) -9.64%, NC(=O)[C@H](CC1CCCCC1)NC(=O)[C@@H]1CN(C(=O)c2cccnc2)CCN1C(=O)C1CCNCC1 -6.08%, O=C(Cn1ccn2nc(-c3ccc(F)cc3)c(CO)c2c1=O)N1CCCCCC1 1.4%, CC(O)CNS(=O)(=O)c1cccc(C(=O)Nc2cccc3c2CCC3)c1 (stereo not given) 3.93%, CC(Cc1cccnc1)NC(=O)c1cn(Cc2ccccc2C(F)(F)F)nn1 (stereo not given) 0.67%, CN1[C@@H](CCC(=O)Nc2ccccc2)CNC(=O)[C@@H]2[C@H]1CCN2Cc1ccc(S(C)(=O)=O)cc1 -0.494%, NS(=O)(=O)c1ccc(CCNCC2(O)CNCCOC2)cc1 (stereo not given) -3.95%, CCN(CC)C(=O)[C@@H]1CCC[C@@H](NC2CCC2)CN(C)C(=O)C1 1.39% [at 57.5 µM], O=C(CCCc1ccccc1)N[C@@H]1CN(c2ccncn2)C[C@H]1CO -4.2%, O=C1CCC2(CCN(C/C=C/c3ccccc3)CC2)CN1CCCn1ccnc1 8.89%, O=C(O)c1ccnc(-c2ccnc(NCCc3noc(C4CCC4)n3)n2)c1 2.13%, c1cncc(Nc2cc3c(cn2)CN(Cc2ccsc2)CCN3)c1 5.1% [at 57.5 µM], CCc1ccc(-c2nc(C3CC(=O)N(c4ccc(C)cc4)C3)no2)cc1 (stereo not given) -5.26%, CC1(C(=O)Nc2ccc(C(N)=O)cc2)CCCc2cnc(Nc3ccccc3)nc21 (stereo not given) 8.31% [at 57.5 µM], O=C([C@H]1O[C@H](CCN2C[C@@H]3C[C@H](C2)c2cccc(=O)n2C3)CC[C@@H]1O)N1CCN(c2ccccc2)CC1 -5.46%, CC(C)(CC(=O)O)CC(=O)N1CCN2C(=O)c3cc(-c4ccc(Cl)cc4)ccc3NC(=O)[C@H]2C1 -9.09%, O=C(O)[C@@H]1CN(C(=O)CCc2cccc(Cl)c2)C[C@H]1c1cccc(F)c1 8.24%, COc1ccc(CN2CCNc3cc(Nc4cccnc4)ncc3C2)cc1O 8.69% [at 57.5 µM], Oc1cccc(-c2cc(-c3cccnc3)c3cncn3c2)c1 11% [at 76.7 µM], O=C(c1cnccn1)N1CC[C@H]2COC(=O)N2c2cc(F)ccc2C1 -8.33% [at 57.5 µM], COc1cccc(CN2CCCC3(CCN(C(=O)c4ccc(OC)nc4OC)C3)C2)c1 (stereo not given) -9.72%, CN1CCCC2(CCN(S(=O)(=O)c3ccc(F)c(F)c3F)C2)C1=O (stereo not given) -2.36%, NC1CCN(C(=O)C2CCCN(c3nc(-c4ccccc4)nc4c3CCC4)C2)CC1 (stereo not given) 3.18%, Cn1cc(CNC(=O)C[C@@H]2C[C@H]3O[C@H](CNCc4ccccc4OC(F)(F)F)[C@@H](O)[C@H]3O2)cn1 -4.33%, COC(=O)c1ccc2nc(C[C@@H]3C[C@@H](C(C)C)[C@H](CNCc4ccccc4F)C=C3C)[nH]c2c1 -0.818%, CCN1CCC(CC(=O)N2CCCC3(C=Cc4ccccc4O3)CC2)CC1 (stereo not given) 1.81%, CC1(C)C[C@H](NCc2ccc(CO)o2)[C@@]2(CCC(=O)N3CCOCC3)CC[C@](C)(O)C[C@@H]12 0.154%, O=C([C@H]1CCC[C@@H](O)C1)N1CCN(Cc2ccc(C(F)(F)F)cc2)CC1 -3.88%, CN1C(=O)COC[C@@H]1[C@H](O)c1ccc(NC(=O)c2ccc3c(c2)OCO3)cc1 0.218% [at 57.5 µM], Cc1cc(=O)n(CC(=O)Nc2cccc(C(C)C)c2)c(N2CCOCC2)n1 3.04%, CC1(C(=O)Nc2ccncc2)CCCc2cnc(Nc3ccccc3)nc21 (stereo not given) 1.51% [at 57.5 µM], O=C(NCc1cnccn1)c1nc(-c2ccccc2)cc2[nH]ccc12 5% [at 57.5 µM]
